Where “and” joins values, the source holds several entries; their conditions need not be identical. Equal values may be shown once. Out of some 400,000 compounds screened, about 13,000 (3.2%) were called active. Inconclusive results, whose numbers are uncertain, are shown with a selection of clear calls. Calls come from the whole dose curve; as a rule, active = well fitted cell-killing curve with a large enough effect; inconclusive = small, poorly fitted or top-dose-only effect, or effect the other way; inactive = flat fitted curve, though single readings scatter. Potencies of inconclusive entries are doubtful fits and often do not repeat.
Assay: qHTS assay for MDR1-selective chemotherapeutics: Primary screen using the drug-selected MDR subline cells KB-V1; note: nearly all actives have a fitted effect of over 60% in size
Settings: KB-V1 MDR cells viability, CellTiter-Glo, 72 h; activity change, negative = cytotoxicity: at 46.1 µM (top of the series)
How it was run: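 Following 72 h at 37 degrees C with compound, KB-V1 cell viability was read by CellTiter-Glo luminescence, medium being phenol-red-free DMEM plus 10% FBS; concentration-response parameters came from normalized, curve-fitted qHTS data.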
% is set by controls: 0 for no effect and ±100 for the full control effect; potency is the fitted concentration of half-maximal effect.

SMILES | Potency | activity change, negative = cytotoxicity
c1cc2c3c(cccc3c1)CC2 | inconclusive: 23.1 µM [rising, partial curve, poor fit] | –
CCOC(=O)[C@]12Cc3cc(C)ccc3[C@H]1N(Cc1ccccc1)C(=O)c1ccccc12 | inconclusive: 14.6 µM [cytotoxic, partial curve] and inconclusive: 10.3 µM [cytotoxic, partial curve, poor fit] | –
O=C(c1ccncc1)C12CN3CN(CN(C3)C1)C2 | inconclusive: 20.6 µM [rising, partial curve, poor fit] | –
O=c1[nH]c(=O)n(-c2ccc(Br)cc2)c(O)c1C=NC(CO)(CO)CO | – | inconclusive: 0%
O=C(Nc1ccccc1)N1CC2CC(C1)c1cccc(=O)n1C2 (stereo not drawn) | inconclusive: 4.11 µM [cytotoxic, partial curve, poor fit] | –
CCOC(=O)[C@]12Cc3cc(C)ccc3[C@H]1N(C1CCCCC1)C(=O)c1ccccc12 | active: 2.59 µM | –
COc1ccccc1CCNC1C2CC3CC(C2)CC1C3 (stereo not drawn) | active: 14.6 µM | –
COc1ccccc1N1C(=O)NC(=O)C2(Cc3cc(C)ccc3N(C)C2)C1=O (stereo not drawn) | inconclusive: 29.1 µM [cytotoxic, single point] | –
COC(=O)[C@@]1(C#N)[C@@H]2C=CC(C(C)=O)=CN2[C@@H](C(N)=O)[C@@H]1c1ccc(F)cc1 | – | inactive: 20.6%
CC12CCC3C(CCC4CC(=O)OCC43C)C1CCC2O (stereo not drawn) | inconclusive: 23.1 µM [cytotoxic, partial curve, poor fit] | –
O=c1c2ccccc2nc(CSc2ncnc3nc[nH]c23)n1-c1ccccc1 | inconclusive: 29.1 µM [cytotoxic, single point] | –
CCC1CN1P(=S)(N1CC1CC)N1CC1CC (stereo not drawn) | – | inactive: -8.52%
CN1C(=O)C(=Cc2ccccc2Oc2ccc(Cl)cc2)C(=O)N(C)C1=O | inconclusive: 18.4 µM [cytotoxic, single point] | –
CN1C(=O)CC(c2ccccc2)Nc2ccccc21 (stereo not drawn) | inconclusive: 23.1 µM [cytotoxic, partial curve, poor fit] | –
Cn1c(O)c(C2=NNC(c3ccc(Cl)cc3)C2)c(=O)n(C)c1=O (stereo not drawn) | – | inactive: -21.4%
Cc1c(C=C2C(=O)N(C)C(=O)N(C)C2=O)c(=O)n(-c2ccccc2)n1C | inconclusive: 32.6 µM [rising, single point] | –
COc1ccc2c(c1)c(C(=O)CN1CCN(C)CC1)c(C)n2Cc1ccccc1 | inconclusive: 9.2 µM [cytotoxic, partial curve] | –
COCCCn1c(N)c(C(=O)OC(C)COC)c2nc3ccccc3nc21 (stereo not drawn) | inconclusive: 8.2 µM [cytotoxic, partial curve, poor fit] | –
CN1CCN(c2ccc(C(N)=O)cc2[N+](=O)[O-])CC1 | inconclusive: 7.31 µM [rising, partial curve] | –
COc1ccccc1NC(=O)COC(=O)c1cn(C)c2ccccc12 | active: 9.2 µM | –
C=CCNC(=S)N1Cc2ccccc2-n2nncc2C1 | inconclusive: 16.4 µM [rising, single point] | –
CCCNC(=O)c1c(N)n(Cc2ccc3c(c2)OCO3)c2nc3ccccc3nc12 | inconclusive: 16.4 µM [cytotoxic, single point] | –
CC(C)(C)C(=O)O[C@H]1CC[C@@]2(C)C(=CC(=O)C3C2CC[C@]2(C)C(=O)[C@@H](F)CC32)C1 (stereo partly drawn) | inconclusive: 16.4 µM [cytotoxic, single point] | –

Three of the compounds above, with tabs.
SMILES	Potency	activity change, negative = cytotoxicity
O=c1c2ccccc2nc(CSc2ncnc3nc[nH]c23)n1-c1ccccc1	inconclusive: 29.1 µM [cytotoxic, single point]	–
CCC1CN1P(=S)(N1CC1CC)N1CC1CC (stereo not drawn)	–	inactive: -8.52%
CN1C(=O)C(=Cc2ccccc2Oc2ccc(Cl)cc2)C(=O)N(C)C1=O	inconclusive: 18.4 µM [cytotoxic, single point]	–

(cont.)

SMILES | Potency | activity change, negative = cytotoxicity
C[C@]12CCC3C(CC[C@@H]4CC(=O)CC[C@]34C)C1CC[C@@H]2O (stereo partly drawn) | inconclusive: 16.4 µM [cytotoxic, single point] | –
CC1([N+](=O)[O-])COP(=O)(Nc2cccc(Br)c2)OC1 (stereo not drawn) | – | inactive: 0%
C[C@]12CC[C@H](O)C[C@@H]1CC[C@@H]1[C@@H]2CC[C@]2(C)C(=O)CC[C@@H]12 | inconclusive: 20.6 µM [cytotoxic, partial curve, poor fit] | –
CN1CC(C(=O)c2ccc(Cl)cc2)C(c2ccccc2F)C1 (stereo not drawn) | inconclusive: 18.4 µM [cytotoxic, single point] | –
Cc1ncc(CN2CCCC(C(=O)c3cccc(Cl)c3)C2)s1 (stereo not drawn) | inconclusive: 9.2 µM [cytotoxic, partial curve] | –
CN1C(=O)/C(=C\c2ccc(N3CCCCCC3)cc2)C(=O)NC1=S | – | inactive: 21.1%
Cc1cc(C)c(Cn2c(C(=O)O)c(C=O)c3ccccc32)c(C)c1 | inconclusive: 29.1 µM [rising, single point] | –
O=C(Nc1ccc(Cl)cc1)Nc1nccs1 | active: 2.59 µM | –
CC/C(=N\N1CCCCCC1)c1c(O)n(-c2ccccc2C)c(=O)[nH]c1=O | active: 11.6 µM | –
N#Cc1cc2c(nc1SCC(=O)Nc1cc(Cl)ccc1Cl)C1CCN2CC1 | active: 4.11 µM | –
Fc1ccc(C(OCCN2CCCC2)c2ccc(Br)cc2)cc1 (stereo not drawn) | inconclusive: 20.6 µM [cytotoxic, partial curve, poor fit] | –
Nc1c2c(nc3sc4c(c13)CCCC4)CCCC2 | – | inactive: -12.8%
O=[N+]([O-])c1ccccc1CN1CC=C(c2ccc(F)cc2)CC1 | – | inactive: -0.119%
CC(C)(C)c1ccc(CN2C(=O)CN=C(c3ccccc3)c3ccccc32)cc1 | active: 16.4 µM | –
Cc1ccsc1C(=O)C1CCCN(Cc2cc(C(C)C)n[nH]2)C1 (stereo not drawn) | inconclusive: 16.4 µM [cytotoxic, partial curve] | –
C=CCn1c(O)c(C(CC)=NCCc2c[nH]c3ccccc23)c(=O)[nH]c1=O | inconclusive: 20.6 µM [cytotoxic, single point] | –
CC(=NCCCO)c1c(O)[nH]c(=O)[nH]c1=O | inconclusive: 16.4 µM [rising, single point] | –
CCOc1ccc(N2C(=O)NC(=O)/C(=C\c3ccc(N4CCCCC4)o3)C2=O)cc1 | inconclusive: 7.31 µM [cytotoxic, partial curve] | –
CC(C(=O)c1c[nH]c2ccccc12)N1CCc2ccccc2C1 (stereo not drawn) | – | inactive: -9.22%
O=C(O)C1C2c3ccccc3C(O)C1(C(=O)O)c1ccccc12 (stereo not drawn) | – | inactive: 5.19%
C=CCn1c(O)c(C(C)=Nc2ccc(N(C)C)cc2)c(=O)[nH]c1=O | – | inactive: 0%
Cn1c(O)c(C=Nc2ccccc2)c(=O)n(C)c1=O | – | inactive: 8.34%
Cc1oc(-c2ccccc2)nc1CN1C(=O)CN=C(c2ccccc2)c2ccccc21 | inconclusive: 29.1 µM [cytotoxic, single point] | –

SMILES | Potency | activity change, negative = cytotoxicity
O=C(c1ccccc1)C(CN1CCCC1)c1ccccc1 (stereo not drawn) | active: 5.17 µM | –
CCOc1ccc2nc(NC(=O)c3cccn(Cc4ccccc4Cl)c3=O)sc2c1 | inconclusive: 16.4 µM [rising, single point] | –
CCn1ccnc1CN1CCCC(C(=O)c2cc(Cl)ccc2OC)C1 (stereo not drawn) | inconclusive: 9.2 µM [cytotoxic, partial curve] | –
COc1ccc(N2CCN(CCCN)CC2)cc1 | inconclusive: 29.1 µM [rising, single point] | –
Oc1ccc(CCNCc2cc3c(cc2Br)OCO3)cc1 | inconclusive: 20.6 µM [cytotoxic, partial curve, poor fit] | –
O=C(c1cn(Cc2ccccc2F)c2ncccc12)C(F)(F)F | – | inactive: -1.2%
CC1([N+](=O)[O-])COP(=O)(NCc2cccnc2)OC1 (stereo not drawn) | inconclusive: 29.1 µM [rising, single point] | –
NC(=O)c1cn(C2OC(CO)C(O)C2O)c2ncnc(N)c12 (stereo not drawn) | active: 7.3 nM and inconclusive: 231 nM [cytotoxic, full curve, poor fit] | –
CCc1ccc(N2C(=O)NC(=O)C(CCc3ccncc3)(CCc3ccncc3)C2=O)cc1 | – | inactive: 10.1%
COc1ccc(CC2(CCc3ccncc3)C(=O)NC(=O)NC2=O)cc1OC | – | inactive: -2.99%
Cc1oc(-c2cccs2)nc1CSCC(=O)N1CCC2(CC1)OCCO2 | active: 10.3 µM | –
C[C@@H]1CC2C3CC=C4C[C@@H](O)CC[C@]4(C)C3CC[C@]2(C)[C@H]1O (stereo partly drawn) | inconclusive: 8.2 µM [cytotoxic, partial curve, poor fit] | –
COc1ccc2c3c1OC1C(O)C=CC4C(C2)[N+](C)(C)CCC341 (stereo not drawn) | inconclusive: 6.51 µM [rising, partial curve, poor fit] | –
O=C(c1ccc2c3c(cccc13)CC2)C1CCCN(CC2CC2)C1 (stereo not drawn) | inconclusive: 8.2 µM [cytotoxic, partial curve] | –
Cc1c(N=Nc2c(O)n(Cc3ccccc3)c(=O)[nH]c2=O)c(=O)n(-c2ccccc2)n1C | active: 3.66 µM | –
Cc1ccc(N2C(=O)NC(=O)/C(=C\c3cc(C)n(-c4cc(C(=O)O)cc(C(=O)O)c4)c3C)C2=O)cc1 | – | inactive: 0%
CS(=O)(=O)CCN1CC2CCCC(C2)C1 | inconclusive: 25.9 µM [rising, single point] | –
COC(=O)C1=C(c2cccc(OC)c2OC)C[C@@H]2CC[C@H]1N2C(=O)NCCCOC(C)C | inconclusive: 29.1 µM [rising, single point] | –
O=C1CN=C(c2ccccc2Cl)c2cc(Br)ccc2N1 | inconclusive: 32.6 µM [rising, single point] | –
O=c1c2ccccc2nc(CNCC2CCCO2)n1-c1ccc(F)cc1 (stereo not drawn) | inconclusive: 10.3 µM [cytotoxic, partial curve, poor fit] | –
CCCCCC(=O)N[C@@H](c1ccccc1)[C@@H](O)C(=O)O[C@H]1C[C@@]2(O)[C@@H](OC(=O)c3ccccc3)C3[C@](C)(C(=O)[C@H](O)C(=C1C)C2(C)C)[C@@H](OC1OCC(O)C(O)C1O)C[C@H]1OC[C@@]31OC(C)=O (stereo partly drawn) | – | inactive: 11.4%
Cc1ccc(-c2nc3ccccc3c(=O)n2-c2ccc(O)cc2)cc1 | – | inactive: 6.48%
